Structures were worked out from names or drawings and are uncertain.
Tests used:
Recombinant human FAP = Recombinant human FAP (Homo sapiens, UniProt Q12884); assay: FAP FRET assay, FGF21-sequence FRET peptide substrate; format: biochemical; details: read-out: Inhibitory Activity (IC50, nM) hFAP FRET; FRET peptide with human FGF21 sequence, 6 μM, 37° C.
DPP4 = DPP4 (Homo sapiens, UniProt P27487); assay: DPP4 inhibition, fluorogenic substrate H-Gly-Pro-AMC; format: biochemical; details: read-out: Inhibitory Activity (IC50, nM) hDPP4

Chains of the proteins cited; added tags and fusions are not shown.
UniProt Q12884, whole entry: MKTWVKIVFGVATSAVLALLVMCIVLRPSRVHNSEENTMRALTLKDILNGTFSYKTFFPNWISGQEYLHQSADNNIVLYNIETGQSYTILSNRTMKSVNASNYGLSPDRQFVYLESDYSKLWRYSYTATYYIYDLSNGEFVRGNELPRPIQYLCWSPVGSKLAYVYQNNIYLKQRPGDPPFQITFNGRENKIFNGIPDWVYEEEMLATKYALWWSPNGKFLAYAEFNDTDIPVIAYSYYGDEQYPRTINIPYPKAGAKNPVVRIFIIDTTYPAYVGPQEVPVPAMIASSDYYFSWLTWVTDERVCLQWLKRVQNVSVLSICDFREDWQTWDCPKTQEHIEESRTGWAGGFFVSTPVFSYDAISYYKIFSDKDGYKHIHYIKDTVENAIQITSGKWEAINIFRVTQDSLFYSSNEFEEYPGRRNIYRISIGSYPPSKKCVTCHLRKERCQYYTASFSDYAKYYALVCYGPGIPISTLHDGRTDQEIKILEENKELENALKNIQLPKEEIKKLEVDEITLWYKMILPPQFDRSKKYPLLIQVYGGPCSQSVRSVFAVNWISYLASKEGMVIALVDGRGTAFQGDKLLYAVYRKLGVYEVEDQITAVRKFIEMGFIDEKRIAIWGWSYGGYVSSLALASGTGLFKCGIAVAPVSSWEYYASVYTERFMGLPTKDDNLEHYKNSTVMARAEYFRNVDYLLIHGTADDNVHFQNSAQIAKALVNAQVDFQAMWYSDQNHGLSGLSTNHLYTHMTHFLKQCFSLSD
UniProt P27487, whole entry: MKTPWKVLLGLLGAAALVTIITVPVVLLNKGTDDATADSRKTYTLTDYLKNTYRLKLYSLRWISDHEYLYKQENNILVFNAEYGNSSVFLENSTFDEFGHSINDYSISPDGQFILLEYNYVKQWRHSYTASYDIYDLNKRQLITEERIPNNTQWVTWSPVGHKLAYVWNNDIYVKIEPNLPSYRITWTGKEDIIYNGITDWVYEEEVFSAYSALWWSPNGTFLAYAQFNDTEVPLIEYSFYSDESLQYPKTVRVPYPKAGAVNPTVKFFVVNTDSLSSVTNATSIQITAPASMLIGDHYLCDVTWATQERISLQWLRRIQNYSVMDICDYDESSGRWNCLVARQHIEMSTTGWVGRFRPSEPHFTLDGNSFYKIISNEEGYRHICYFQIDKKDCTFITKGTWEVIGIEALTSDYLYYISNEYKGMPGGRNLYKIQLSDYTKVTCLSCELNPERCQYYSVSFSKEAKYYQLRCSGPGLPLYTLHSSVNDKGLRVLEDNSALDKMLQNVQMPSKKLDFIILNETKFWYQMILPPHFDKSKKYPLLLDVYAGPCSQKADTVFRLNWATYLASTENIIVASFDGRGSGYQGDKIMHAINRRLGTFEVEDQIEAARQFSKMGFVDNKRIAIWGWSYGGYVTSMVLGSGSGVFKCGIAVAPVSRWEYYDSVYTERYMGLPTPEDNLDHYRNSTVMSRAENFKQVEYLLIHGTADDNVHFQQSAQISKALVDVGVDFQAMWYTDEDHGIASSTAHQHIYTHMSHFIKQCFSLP

IC50 (Recombinant human FAP): 27.6 nM
IC50 (DPP4): ≥ 10000 nM
SMILES: N#C[C@@H]1C[C@H](F)CN1C(=O)CN1CCC(Nc2cnc3ccccc3c2)CC1

Source: patent US11655235B2, “Pyrrolidine and piperidine compounds” (YUHAN CORPORATION, priority 2019, dated 2023)
